# Publication PMC7819943, “Rice protein-binding microarrays: a tool to detect cis-acting elements near promoter regions in rice”
# The chains behind the UniProt entries cited, without tags or fusion partners.
# UniProt Q0JBA9, entry or part of it: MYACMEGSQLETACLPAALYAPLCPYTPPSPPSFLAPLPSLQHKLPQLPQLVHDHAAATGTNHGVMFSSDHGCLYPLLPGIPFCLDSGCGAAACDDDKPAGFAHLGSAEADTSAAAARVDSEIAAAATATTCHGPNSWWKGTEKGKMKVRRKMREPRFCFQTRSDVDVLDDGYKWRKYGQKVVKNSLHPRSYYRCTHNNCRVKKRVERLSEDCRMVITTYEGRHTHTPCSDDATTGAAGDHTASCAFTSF
# The other results are listed elsewhere or left out.
# Biological target: OsWRKY34 (Oryza sativa, UniProt Q0JBA9 1-250)
# Test: protein-binding microarray (RPBM); PBS, 2% BSA, 51.3 ng/ul salmon testes DNA, 50 uM zinc acetate, 200 nM TF, 25 C, 1 h; high values mean tight binding
# Conditions: protein: recombinant; tags: N-terminal polyhistidine and DsRed monomer fusion (pET32a); label: CyDye5-dUTP incorporated in the synthesized complementary strand; 3' TTTTT single-stranded linker to array surface; dsDNA, one strand shown
# How it was run: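 Binding signal here means per-feature fluorescence intensity in arbitrary units. The values were read on an Axon 4000B scanner after a custom Agilent array, double-stranded by primer extension with Cy5-dUTP, was incubated with 200 nM protein at 25 °C for 1 h in PBS with 2% BSA, salmon testes DNA and 50 µM zinc acetate, then washed. The proteins were transcription factors with an N-terminal polyhistidine tag and DsRed, expressed in E. coli BL21-CodonPlus and purified on Ni–NTA.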
row,Sequence,binding signal
1,CGTCCTCGTTGTTCTCTCGCTCGCTCGCATGCTCCTCGCGCGGAGTCACCTAGTGCAG,8750 fluorescence intensity (a.u.)
2,CAGCAAGAAGCTCCATTAATCCATTCCATATACTCATATACGGAGTCACCTAGTGCAG,8570 fluorescence intensity (a.u.)
3,GATCCCGGGCCCGGCCCACTGGCCCAGTCAACTAATCCTCCGGAGTCACCTAGTGCAG,8080 fluorescence intensity (a.u.)
4,CGTGTGTGGCCTCCTCCTCCGTTCCGTTTCGCAGTCGTCGCGGAGTCACCTAGTGCAG,8930 fluorescence intensity (a.u.)
5,TCTCCGTCGACCGTGCCGCCCGTGCCACTCGATTTGTTGACGGAGTCACCTAGTGCAG,9460 fluorescence intensity (a.u.)
6,CTGATGCCCATATACTTACATGTTAACTAATGCATAGACACGGAGTCACCTAGTGCAG,9070 fluorescence intensity (a.u.)
7,CCGCAGCCACCTCACCGCGTCAATCCGCCGCCGCCACGCGCGGAGTCACCTAGTGCAG,8670 fluorescence intensity (a.u.)
8,TCCCTGGCAATGGCCCTACTACCTCCCTGTTCCCTGAAACCGGAGTCACCTAGTGCAG,9070 fluorescence intensity (a.u.)
9,TTAGTTGTTCTTATTGAGACGAGCATCTTCGCCCCATCTTCGGAGTCACCTAGTGCAG,8550 fluorescence intensity (a.u.)
10,CTCTCCCCAGATCCGCGCCTCGAAACATTCATCTCGTCTCCGGAGTCACCTAGTGCAG,8640 fluorescence intensity (a.u.)
11,CAGTGCTCCCTGCTGTCCACGCCGGCGCCGCGCCTCCCCACGGAGTCACCTAGTGCAG,8160 fluorescence intensity (a.u.)
12,TCCTGTTTAAAGTTTTTTTTTGTGATTTTTAGATAAAAAACGGAGTCACCTAGTGCAG,9030 fluorescence intensity (a.u.)
13,GAGGTTAGGCAAGTTTGACCATGTTAGATGAGTGTTTGGTCGGAGTCACCTAGTGCAG,9180 fluorescence intensity (a.u.)
14,ACCATTATTCTGTTGTCAACTGCATGCCGCAACAAACTGACGGAGTCACCTAGTGCAG,8420 fluorescence intensity (a.u.)
15,TTCGCTCACCTCTCGATCGATCGACCTGCCAACATCAACACGGAGTCACCTAGTGCAG,10400 fluorescence intensity (a.u.)
16,CCATTGTCCCCGCCGTCCCCGCCGTCCACGCCGGCGCCGCCGGAGTCACCTAGTGCAG,10100 fluorescence intensity (a.u.)
17,CAAGCACTCAGAGGTGGGGTGGGGCCACATCGTCAGTGAACGGAGTCACCTAGTGCAG,9260 fluorescence intensity (a.u.)
18,TCTTTTGCATCATTCATTTTCACCTGCATGACGACTTAAACGGAGTCACCTAGTGCAG,14500 fluorescence intensity (a.u.)
19,TCCTACAATTGATCCTTGCTTAATTATTGATAATGTTTCTCGGAGTCACCTAGTGCAG,8270 fluorescence intensity (a.u.)
20,GCGCGAGAGGCGCGCGAGGCGGCGGCGGGGAGGTGGCGGCCGGAGTCACCTAGTGCAG,8780 fluorescence intensity (a.u.)
21,CATAGCCCTCATCGCGAACCCGCAGACGCGCGCTACGACCCGGAGTCACCTAGTGCAG,9120 fluorescence intensity (a.u.)

row,Sequence,binding signal
1,CCTCGCTGCCGCCGCCGCCGCATCTGACCACCCGGCGATGCGGAGTCACCTAGTGCAG,9880 fluorescence intensity (a.u.)
2,CCACTACTACGCGATTGATTTTCCTAGACTCTTTGTTTCCCGGAGTCACCTAGTGCAG,8290 fluorescence intensity (a.u.)
3,CTCTTGCACTATAATTTCATTTGCATTCTCATATCAGCCGCGGAGTCACCTAGTGCAG,10300 fluorescence intensity (a.u.)
4,GCTCCCGTCCATGGCCGCTGCTGCTCCTACCACTCACTAACGGAGTCACCTAGTGCAG,9320 fluorescence intensity (a.u.)
5,GTCACTGTGAATTTATCGATTACTCGATTTGGTTCTTGGTCGGAGTCACCTAGTGCAG,10300 fluorescence intensity (a.u.)
6,AATTAACCTGGCAGCTGATACACGTACTCTTGCTTTGGCCCGGAGTCACCTAGTGCAG,8090 fluorescence intensity (a.u.)
7,ACATCTCATTCCTTCTCCTTTTTCTTCTCCTCACACACTACGGAGTCACCTAGTGCAG,11100 fluorescence intensity (a.u.)
8,GCCTGTGTTCGCTGTTGCTAGCTCTCTCGACGAGATGACACGGAGTCACCTAGTGCAG,8500 fluorescence intensity (a.u.)
9,GAAGCAGGTGGTTTTCTTCACCCACCAACCGCCGTCTCCGCGGAGTCACCTAGTGCAG,9380 fluorescence intensity (a.u.)
10,CTCGCTTATTAGCTTCCCTGTACTCAGTATTAATCAGCAACGGAGTCACCTAGTGCAG,8520 fluorescence intensity (a.u.)
11,TAGTAGTAGACACTAAAGGCTGTGTTCTTTGCTTATCGTTCGGAGTCACCTAGTGCAG,9190 fluorescence intensity (a.u.)
12,GCATTCGTTTCAGGCTGTTCCCAACCTCTCTCCCTTGTTTCGGAGTCACCTAGTGCAG,12000 fluorescence intensity (a.u.)
13,TAAATTGCGTTCTGGGCCACATTTTATTATCTAAGTTTCACGGAGTCACCTAGTGCAG,9090 fluorescence intensity (a.u.)
14,TGCCACAAAAAATCCCACCTGTTCCAAATCCTACTCGTGTCGGAGTCACCTAGTGCAG,8580 fluorescence intensity (a.u.)
15,CCCCGTCGTGCTCCGCGGCGGCGCGCTCTTCTGGCCGCCGCGGAGTCACCTAGTGCAG,12500 fluorescence intensity (a.u.)
16,ATTCACCGATTTCTATTTTCTGCATACATATTTCTTAAACCGGAGTCACCTAGTGCAG,9490 fluorescence intensity (a.u.)
17,CTCTATGCTTATCCATGTGCATTTTTGCATAAAAGCTCCGCGGAGTCACCTAGTGCAG,8460 fluorescence intensity (a.u.)
18,AGCCACGCCCACGACCCGCAACTATAGTACGTACAACCTCCGGAGTCACCTAGTGCAG,9340 fluorescence intensity (a.u.)
19,CAAACACGCCCTTATCCGCGCGCCTCATCGCCTCGCCAAGCGGAGTCACCTAGTGCAG,8160 fluorescence intensity (a.u.)
20,ACGAAGGGAGTGTTATATTTGTTTGGGGTTAGGACCTGAACGGAGTCACCTAGTGCAG,9070 fluorescence intensity (a.u.)
21,TCGTTTCTGGTTGCTAGTAATAATTTTGCGCGCTTGCTTCCGGAGTCACCTAGTGCAG,8520 fluorescence intensity (a.u.)

# Pulled one by one from the list above, two records:
row,Sequence,binding signal
12,TCCTGTTTAAAGTTTTTTTTTGTGATTTTTAGATAAAAAACGGAGTCACCTAGTGCAG,9030 fluorescence intensity (a.u.)
14,TGCCACAAAAAATCCCACCTGTTCCAAATCCTACTCGTGTCGGAGTCACCTAGTGCAG,8580 fluorescence intensity (a.u.)
